The data set concerns RAW264.7 cells. The data set can be described thus: Intracellular drug release by LC-MS. In kind it is cell-based, mouse. The conditions noted are these: prodrug 1 mM.

Results on one molecule are retold here after patent US12383535B2, “Hydrogen peroxide-responsive KEAP1-NRF2 ppi inhibitor prodrug, and preparation method therefor” (CHINA PHARMACEUTICAL UNIVERSITY, priority 2019, dated 2025).

Molecules are shown by their SMILES.

Turning to `COc1ccc(S(=O)(=O)Nc2ccc(N(CC(=O)N3CCSC3=O)S(=O)(=O)c3ccc(OC)cc3)c3ccccc23)cc1` [pro2], the “peak for parent compound 2 in cell lysate” value (H2O2-stimulated RAW264.7 cells) is reported as “a clear signal for the parent compound 2 was observed” and the “peak for parent compound 2 in cell lysate” value (unstimulated RAW264.7 cells) is “not observed”.
